Data taken from patent US20050153304A1, “Multivariate profiling of complex biological regulatory pathways” (Government of the USA, as represented by the secretary, …, priority 2003, published 2005).
For at least one compound, name, drawing or mass did not settle the structure.

Test system: Jurkat T-cells, 8 promoter elements
Test: Principal component analysis of vector differences between mitogen profiles in the absence and presence of drug (8 promoter elements)
Assay type: cell-based, human
Details: subtraction vectors versus control mitogen profiles, FIG. 5
Procedure: The mitogen activation profiles under control conditions shown in red FIG. 4 were used to calculate subtraction vectors for each profile in the presence of a drug treatment. These vectors were then analyzed by PCA to show similarities and differences in targeting.
A human acute lymphoblastic T-cell leukemia cell line (Jurkat) was individually electroporated with 5 ug of a luciferase reporter plasmids driven by the interleukin 2 (IL-2) promoter, the NFAT element of the IL-2 promoter, the CD28RE-AP1 element of the IL-2 promoter, a consensus AP-1 element, a consensus NF-kappa B element, a consensus CRE element and the co-transfection of a Gal4 binding site or upstream activation sequence (UAS) driving a luciferase reporter in combination with either a full length Gal4-p300 fusion (FL) or a N-terminal domain fusion of p300 (amino acids 1-743). Electroporation was performed in a 96 well format with a BTX 96-well gold electrode. Cells were electroporated at 10 millions cells per well with each experiment repeated in triplicates. Following electroporation cells were stimulated with various combination of T-cell mitogens (see Table 1). Cells were harvested 5 hours after stimulation and assayed for luciferase activity by a 96 well luminometer. […]

Compound | drug targeting profile (similarity of pathways targeted)
C=C[C@@]1(C)CC(=O)[C@]2(O)[C@@]3(C)[C@@H](O)CCC(C)(C)[C@@H]3[C@H](O)[C@H](OC(C)=O)[C@@]2(C)O1 [Forskolin] | completely different from the other conditions
COC[C@H]1OC(=O)c2coc3c2[C@@]1(C)C1=C(C3=O)[C@@H]2CCC(=O)[C@@]2(C)C[C@H]1OC(C)=O [wortmannin] | appear to target the same pathway
